# Results reported in publication PMC3936751.
# No constants are given. Whether binding was seen depends on the method and setting. Sequences can lack the tags named with a protein.
# T1: human Cdc45 protein, C-terminally His6-tagged (hCdc45-His6) (human), O75419
# T1 chain: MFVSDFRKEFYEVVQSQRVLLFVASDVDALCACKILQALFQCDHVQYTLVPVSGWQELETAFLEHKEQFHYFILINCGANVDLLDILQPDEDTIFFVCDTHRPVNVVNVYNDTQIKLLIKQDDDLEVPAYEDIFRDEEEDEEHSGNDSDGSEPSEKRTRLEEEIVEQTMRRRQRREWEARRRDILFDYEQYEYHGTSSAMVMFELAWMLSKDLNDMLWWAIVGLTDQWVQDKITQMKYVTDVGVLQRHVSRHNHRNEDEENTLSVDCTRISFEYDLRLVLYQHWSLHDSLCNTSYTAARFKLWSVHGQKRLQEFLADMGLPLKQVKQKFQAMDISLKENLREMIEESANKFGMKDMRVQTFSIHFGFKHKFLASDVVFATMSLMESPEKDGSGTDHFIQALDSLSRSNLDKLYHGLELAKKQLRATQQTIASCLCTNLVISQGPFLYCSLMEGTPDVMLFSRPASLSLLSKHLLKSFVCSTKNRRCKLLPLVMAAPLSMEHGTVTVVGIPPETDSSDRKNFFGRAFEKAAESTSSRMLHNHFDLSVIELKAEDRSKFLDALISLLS
# B1: human Cdc45 protein, C-terminally His6-tagged (hCdc45-His6), O75419 1-566 (protein)
# chain: T1 chain
# What was measured:
# Settings in all cases: remark: other sources report otherwise
# [1] = target: T1, human Cdc45 protein, C-terminally …; test: atomic force microscopy (volume analysis); protein diluted to 10 nM in 20 mM HEPES pH 7.5, 25 mM sodium acetate, 10 mM magnesium acetate, deposited on mica and dried; volumes translated into molecular weight by a linear calibration; both purified
# [2] = target: T1, human Cdc45 protein, C-terminally …; test: small-angle X-ray scattering (SAXS); protein in solution, 1.3 to 5.4 mg/ml, 20 mM HEPES-KOH pH 7.5, 150 mM KCl, 1 mM DTT, 1 mM MgCl2, 5% glycerol; mass from forward scattering against bovine serum albumin, Vc and Porod volume; both purified
# [3] = target: T1, human Cdc45 protein, C-terminally …; test: SEC; analytical gel filtration (Supplementary Figure S1); conditions not told for this run; both purified
# [4] = target: T1, human Cdc45 protein, C-terminally …; test: dynamic light scattering; purified protein in solution; conditions not given; both purified
binder,measurement,setting,value
B1,binding,[1],no binding (tested: 10 nM)
same,binding,[2],no binding (tested: 1.3 to 5.4 mg/ml)
same,binding,[3],no binding
same,binding,[4],no binding
